Paper PMC3087504
For at least one entry, the source does not settle the construct or the ends of the probe. For some assays here: No signal at the amounts used counts as a negative. For some assays here: Weaker means in comparison with the reference protein, sequence or condition of that experiment.

Chains of the proteins cited; added tags and fusions are not shown. A line that says so, or that is headed by a name, gives the form on record, which may keep a tag or linker. Residues count along the entry.
UniProt O88898, 40-680: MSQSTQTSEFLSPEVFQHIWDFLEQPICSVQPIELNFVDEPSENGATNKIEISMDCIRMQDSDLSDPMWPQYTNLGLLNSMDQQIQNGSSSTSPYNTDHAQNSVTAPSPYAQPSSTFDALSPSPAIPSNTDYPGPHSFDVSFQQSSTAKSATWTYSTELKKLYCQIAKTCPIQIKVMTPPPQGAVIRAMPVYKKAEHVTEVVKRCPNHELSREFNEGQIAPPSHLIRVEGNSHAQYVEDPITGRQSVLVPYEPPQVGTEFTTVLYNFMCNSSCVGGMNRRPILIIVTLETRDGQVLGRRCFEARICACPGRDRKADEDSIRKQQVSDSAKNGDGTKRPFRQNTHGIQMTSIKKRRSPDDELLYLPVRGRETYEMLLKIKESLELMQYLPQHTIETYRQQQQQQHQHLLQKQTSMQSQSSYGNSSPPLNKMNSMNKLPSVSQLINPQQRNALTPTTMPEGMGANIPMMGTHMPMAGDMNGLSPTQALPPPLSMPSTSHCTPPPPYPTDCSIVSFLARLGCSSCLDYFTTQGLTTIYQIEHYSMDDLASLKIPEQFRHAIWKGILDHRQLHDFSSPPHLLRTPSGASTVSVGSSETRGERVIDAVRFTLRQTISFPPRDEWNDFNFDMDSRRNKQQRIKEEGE
MBP-TAp63γ (Mus musculus), one chain, as listed by the source: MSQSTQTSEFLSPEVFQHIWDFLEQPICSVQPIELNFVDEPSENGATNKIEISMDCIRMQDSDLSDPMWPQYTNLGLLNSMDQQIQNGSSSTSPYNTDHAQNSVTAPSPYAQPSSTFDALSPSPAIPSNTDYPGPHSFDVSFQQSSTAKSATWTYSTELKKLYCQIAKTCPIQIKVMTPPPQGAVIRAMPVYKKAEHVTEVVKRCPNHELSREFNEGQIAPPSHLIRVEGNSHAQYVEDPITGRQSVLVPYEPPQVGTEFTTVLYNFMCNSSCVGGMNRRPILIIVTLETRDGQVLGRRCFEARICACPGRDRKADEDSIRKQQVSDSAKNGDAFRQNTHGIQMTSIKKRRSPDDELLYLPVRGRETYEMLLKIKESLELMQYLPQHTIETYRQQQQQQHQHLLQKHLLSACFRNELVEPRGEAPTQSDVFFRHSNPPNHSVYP

Tests used:
Test in all cases: fluorescence anisotropy
[1] = biological target: MBP-TAp63α (Mus musculus) (UniProt O88898); conditions: 300 nM DNA, binds, lower affinity than FTL and γ; 10 mM potassium phosphate pH 7.6, 200 mM NaCl, room temperature, 30 min; 15 nM p21 DNA (300 nM for controls), protein 0.1-15 µM monomer; recombinant protein; protein details: N-term MBP, C-term His6; label: 5'-fluorescein
[2] = biological target: MBP-TAp63αFTL (Mus musculus) (UniProt O88898); conditions: 300 nM DNA; 10 mM potassium phosphate pH 7.6, 200 mM NaCl, room temperature, 30 min; 15 nM p21 DNA (300 nM for controls), protein 0.1-15 µM monomer; recombinant protein; protein details: N-term MBP, C-term His6; label: 5'-fluorescein
[3] = test system: MBP-TAp63γ (Mus musculus); conditions: 300 nM DNA; 10 mM potassium phosphate pH 7.6, 200 mM NaCl, room temperature, 30 min; 15 nM p21 DNA (300 nM for controls), protein 0.1-15 µM monomer; recombinant protein; protein details: N-term MBP, C-term His6; label: 5'-fluorescein

Row | Sequence | binding result [1] | binding result [2] | binding result [3]
1 | CCTATTCTAGACATGTGAGGACATGTCGATACTTATTCC (double strand) [SELEX-based p63 binding sequence] | binds more weakly | binds | binds
2 | CGAGTTGTAAGTCGAATTGATACCATAATGCACTACACG (double strand) [random sequence] | – | no binding | no binding
